These are yes or no findings as the source states them, for the method shown. Binding seen in cells or lysates may run through a third protein. Here binding means that the protein was enriched with, or labelled near, the bait; the list need not be complete.
biological target: Spinophilin (mouse (endogenous in pancreas and isolated islets)) (UniProt Q6R891); assay: affinity purification with mass spectrometry; spinophilin immunoprecipitated from islets isolated from three WT and one Spino^-/- mice; label-free, spectral counting

Chains of the proteins cited; added tags and fusions are not shown. Lines headed by an entry give the natural chain unless they say otherwise; changes in a name come on top. Residues count along the entry.
UniProt Q6R891: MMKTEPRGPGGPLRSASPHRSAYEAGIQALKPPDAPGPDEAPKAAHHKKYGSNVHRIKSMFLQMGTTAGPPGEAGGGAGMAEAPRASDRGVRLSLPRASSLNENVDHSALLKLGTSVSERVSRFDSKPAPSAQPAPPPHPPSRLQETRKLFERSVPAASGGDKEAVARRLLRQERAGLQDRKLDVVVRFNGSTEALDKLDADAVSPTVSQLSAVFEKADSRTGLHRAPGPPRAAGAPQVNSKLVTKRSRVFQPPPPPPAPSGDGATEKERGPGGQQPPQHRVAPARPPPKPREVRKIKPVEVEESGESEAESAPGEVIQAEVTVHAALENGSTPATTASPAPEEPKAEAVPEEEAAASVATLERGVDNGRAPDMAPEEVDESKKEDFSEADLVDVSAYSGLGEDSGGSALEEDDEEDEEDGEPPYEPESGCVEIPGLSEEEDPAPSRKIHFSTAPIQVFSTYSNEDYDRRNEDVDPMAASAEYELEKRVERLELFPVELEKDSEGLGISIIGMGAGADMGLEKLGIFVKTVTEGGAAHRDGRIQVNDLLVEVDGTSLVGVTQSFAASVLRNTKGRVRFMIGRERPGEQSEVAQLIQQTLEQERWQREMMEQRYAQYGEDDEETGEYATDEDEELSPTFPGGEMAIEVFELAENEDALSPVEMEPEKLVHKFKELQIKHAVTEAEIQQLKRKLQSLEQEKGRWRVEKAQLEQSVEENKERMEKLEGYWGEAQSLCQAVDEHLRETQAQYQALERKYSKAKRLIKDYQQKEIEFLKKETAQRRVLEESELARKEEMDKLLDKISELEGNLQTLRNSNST
UniProt O88569: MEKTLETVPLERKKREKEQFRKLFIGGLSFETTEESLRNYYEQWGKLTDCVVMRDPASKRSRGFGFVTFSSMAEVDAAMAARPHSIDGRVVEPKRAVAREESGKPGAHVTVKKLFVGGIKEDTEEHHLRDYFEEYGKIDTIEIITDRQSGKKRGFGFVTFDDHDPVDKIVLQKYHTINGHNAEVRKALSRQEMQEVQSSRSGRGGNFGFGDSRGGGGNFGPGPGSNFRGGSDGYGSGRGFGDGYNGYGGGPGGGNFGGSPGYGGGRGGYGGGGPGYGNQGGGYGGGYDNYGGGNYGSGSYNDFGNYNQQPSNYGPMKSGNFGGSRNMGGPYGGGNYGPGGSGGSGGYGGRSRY
UniProt P18760: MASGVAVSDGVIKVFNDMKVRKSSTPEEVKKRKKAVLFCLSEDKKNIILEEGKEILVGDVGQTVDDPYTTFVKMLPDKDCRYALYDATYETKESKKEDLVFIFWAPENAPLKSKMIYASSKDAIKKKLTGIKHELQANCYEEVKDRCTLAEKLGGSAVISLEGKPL
UniProt Q5FW97: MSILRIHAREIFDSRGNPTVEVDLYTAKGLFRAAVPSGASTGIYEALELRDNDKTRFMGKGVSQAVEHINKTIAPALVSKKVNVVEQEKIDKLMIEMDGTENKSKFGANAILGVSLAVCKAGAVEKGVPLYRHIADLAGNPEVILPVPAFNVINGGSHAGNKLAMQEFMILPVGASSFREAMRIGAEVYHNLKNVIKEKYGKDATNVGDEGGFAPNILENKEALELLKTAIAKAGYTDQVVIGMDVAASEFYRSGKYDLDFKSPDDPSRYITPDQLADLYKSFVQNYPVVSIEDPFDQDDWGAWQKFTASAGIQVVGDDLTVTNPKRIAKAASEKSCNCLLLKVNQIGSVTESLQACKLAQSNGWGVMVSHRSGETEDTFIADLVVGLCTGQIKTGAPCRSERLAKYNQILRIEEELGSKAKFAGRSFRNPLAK
UniProt P07356: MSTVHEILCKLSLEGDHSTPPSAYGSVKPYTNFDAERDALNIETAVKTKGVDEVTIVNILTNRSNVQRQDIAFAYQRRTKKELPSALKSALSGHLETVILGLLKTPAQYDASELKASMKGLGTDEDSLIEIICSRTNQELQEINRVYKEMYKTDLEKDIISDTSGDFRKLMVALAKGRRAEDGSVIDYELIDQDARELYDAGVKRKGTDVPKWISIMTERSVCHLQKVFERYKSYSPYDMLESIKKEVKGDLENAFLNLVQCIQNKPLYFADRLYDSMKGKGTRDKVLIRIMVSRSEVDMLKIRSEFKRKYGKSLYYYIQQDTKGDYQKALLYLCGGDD
UniProt P43274: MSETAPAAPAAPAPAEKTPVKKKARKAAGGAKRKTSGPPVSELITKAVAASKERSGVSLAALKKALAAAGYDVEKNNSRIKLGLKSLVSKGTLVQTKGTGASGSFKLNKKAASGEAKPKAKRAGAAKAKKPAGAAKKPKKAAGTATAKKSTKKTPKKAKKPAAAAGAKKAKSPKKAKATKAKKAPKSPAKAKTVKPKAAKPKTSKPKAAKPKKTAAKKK
UniProt P07146: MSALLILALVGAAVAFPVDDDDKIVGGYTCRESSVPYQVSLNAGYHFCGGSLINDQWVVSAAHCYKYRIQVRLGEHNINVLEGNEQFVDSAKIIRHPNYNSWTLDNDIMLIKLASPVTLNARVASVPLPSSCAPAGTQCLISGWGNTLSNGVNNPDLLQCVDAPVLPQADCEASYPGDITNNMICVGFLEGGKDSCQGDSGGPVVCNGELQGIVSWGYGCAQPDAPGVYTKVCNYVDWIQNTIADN
UniProt P67871: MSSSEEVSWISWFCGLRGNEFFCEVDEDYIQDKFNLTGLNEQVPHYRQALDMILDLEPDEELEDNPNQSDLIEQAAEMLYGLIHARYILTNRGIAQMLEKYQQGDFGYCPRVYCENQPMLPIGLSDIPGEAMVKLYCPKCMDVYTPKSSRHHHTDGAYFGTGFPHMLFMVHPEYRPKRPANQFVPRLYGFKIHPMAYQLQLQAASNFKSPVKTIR
UniProt Q9CR35, residues 19-263: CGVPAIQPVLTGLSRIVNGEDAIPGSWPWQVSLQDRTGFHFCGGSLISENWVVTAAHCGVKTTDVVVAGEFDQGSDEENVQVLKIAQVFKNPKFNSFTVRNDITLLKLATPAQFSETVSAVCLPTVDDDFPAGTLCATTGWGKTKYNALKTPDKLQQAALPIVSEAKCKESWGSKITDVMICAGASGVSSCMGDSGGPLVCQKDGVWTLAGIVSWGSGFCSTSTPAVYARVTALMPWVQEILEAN
UniProt Q9CQC2: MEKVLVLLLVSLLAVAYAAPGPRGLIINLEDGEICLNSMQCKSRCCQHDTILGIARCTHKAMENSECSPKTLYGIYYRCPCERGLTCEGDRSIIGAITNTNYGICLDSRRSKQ
UniProt P21107: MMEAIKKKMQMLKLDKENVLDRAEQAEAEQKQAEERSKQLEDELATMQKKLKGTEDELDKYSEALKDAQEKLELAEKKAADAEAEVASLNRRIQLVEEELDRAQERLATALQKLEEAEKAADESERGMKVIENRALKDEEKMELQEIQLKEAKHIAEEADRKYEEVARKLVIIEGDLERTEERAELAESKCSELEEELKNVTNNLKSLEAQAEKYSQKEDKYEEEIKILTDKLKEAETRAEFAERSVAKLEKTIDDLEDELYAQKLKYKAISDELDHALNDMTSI
UniProt Q9JMH9: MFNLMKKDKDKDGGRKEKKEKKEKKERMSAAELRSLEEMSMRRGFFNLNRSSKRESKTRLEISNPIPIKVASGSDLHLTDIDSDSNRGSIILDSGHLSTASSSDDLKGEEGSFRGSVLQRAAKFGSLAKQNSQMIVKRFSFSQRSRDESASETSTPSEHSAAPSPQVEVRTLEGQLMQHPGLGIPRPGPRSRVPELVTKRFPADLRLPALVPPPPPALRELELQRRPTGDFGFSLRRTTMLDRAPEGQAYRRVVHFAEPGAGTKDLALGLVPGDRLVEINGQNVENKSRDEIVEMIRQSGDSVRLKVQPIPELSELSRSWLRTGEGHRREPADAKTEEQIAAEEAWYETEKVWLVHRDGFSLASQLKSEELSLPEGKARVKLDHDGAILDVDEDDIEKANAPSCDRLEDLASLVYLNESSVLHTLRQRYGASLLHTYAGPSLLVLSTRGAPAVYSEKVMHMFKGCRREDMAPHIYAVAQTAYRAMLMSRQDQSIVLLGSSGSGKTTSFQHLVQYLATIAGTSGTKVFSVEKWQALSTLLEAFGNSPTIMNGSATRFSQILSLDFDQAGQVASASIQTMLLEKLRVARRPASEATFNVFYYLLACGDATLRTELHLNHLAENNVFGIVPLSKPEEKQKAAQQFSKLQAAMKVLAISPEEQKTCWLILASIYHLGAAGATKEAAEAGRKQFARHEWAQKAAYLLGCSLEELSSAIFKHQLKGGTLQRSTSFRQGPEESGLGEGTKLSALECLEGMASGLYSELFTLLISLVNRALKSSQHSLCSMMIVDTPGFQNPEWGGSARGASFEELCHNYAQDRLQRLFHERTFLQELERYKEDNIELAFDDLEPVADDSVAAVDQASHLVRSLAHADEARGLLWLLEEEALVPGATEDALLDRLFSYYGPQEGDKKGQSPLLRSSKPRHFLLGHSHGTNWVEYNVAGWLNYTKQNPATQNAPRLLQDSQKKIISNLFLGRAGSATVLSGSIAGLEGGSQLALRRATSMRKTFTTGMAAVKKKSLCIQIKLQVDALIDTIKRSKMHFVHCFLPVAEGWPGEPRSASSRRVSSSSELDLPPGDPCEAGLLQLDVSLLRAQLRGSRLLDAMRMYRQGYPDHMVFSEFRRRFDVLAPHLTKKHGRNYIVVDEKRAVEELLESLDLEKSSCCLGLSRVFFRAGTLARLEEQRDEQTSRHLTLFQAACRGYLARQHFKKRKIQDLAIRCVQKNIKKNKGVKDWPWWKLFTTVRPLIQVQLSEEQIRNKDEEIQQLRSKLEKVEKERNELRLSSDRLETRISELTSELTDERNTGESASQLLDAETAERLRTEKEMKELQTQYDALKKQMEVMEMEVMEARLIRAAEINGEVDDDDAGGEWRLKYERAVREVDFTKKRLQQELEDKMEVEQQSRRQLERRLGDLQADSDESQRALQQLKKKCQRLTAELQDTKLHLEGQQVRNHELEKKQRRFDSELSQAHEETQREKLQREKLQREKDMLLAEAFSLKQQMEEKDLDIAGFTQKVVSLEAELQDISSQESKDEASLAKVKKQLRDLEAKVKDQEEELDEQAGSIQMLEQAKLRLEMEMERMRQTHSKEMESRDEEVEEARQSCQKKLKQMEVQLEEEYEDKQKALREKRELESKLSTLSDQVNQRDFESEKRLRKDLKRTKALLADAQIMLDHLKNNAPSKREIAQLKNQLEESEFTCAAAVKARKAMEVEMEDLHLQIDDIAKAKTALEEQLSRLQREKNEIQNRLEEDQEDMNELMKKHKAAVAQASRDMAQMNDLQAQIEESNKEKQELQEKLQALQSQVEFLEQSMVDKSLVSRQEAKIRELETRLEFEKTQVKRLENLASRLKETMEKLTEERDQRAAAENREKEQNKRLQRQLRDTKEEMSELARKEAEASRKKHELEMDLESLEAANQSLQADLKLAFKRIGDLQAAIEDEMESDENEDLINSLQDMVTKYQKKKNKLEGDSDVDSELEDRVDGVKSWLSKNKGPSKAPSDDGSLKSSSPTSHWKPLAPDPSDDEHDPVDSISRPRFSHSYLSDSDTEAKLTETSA
UniProt Q04857, residues 20-1025: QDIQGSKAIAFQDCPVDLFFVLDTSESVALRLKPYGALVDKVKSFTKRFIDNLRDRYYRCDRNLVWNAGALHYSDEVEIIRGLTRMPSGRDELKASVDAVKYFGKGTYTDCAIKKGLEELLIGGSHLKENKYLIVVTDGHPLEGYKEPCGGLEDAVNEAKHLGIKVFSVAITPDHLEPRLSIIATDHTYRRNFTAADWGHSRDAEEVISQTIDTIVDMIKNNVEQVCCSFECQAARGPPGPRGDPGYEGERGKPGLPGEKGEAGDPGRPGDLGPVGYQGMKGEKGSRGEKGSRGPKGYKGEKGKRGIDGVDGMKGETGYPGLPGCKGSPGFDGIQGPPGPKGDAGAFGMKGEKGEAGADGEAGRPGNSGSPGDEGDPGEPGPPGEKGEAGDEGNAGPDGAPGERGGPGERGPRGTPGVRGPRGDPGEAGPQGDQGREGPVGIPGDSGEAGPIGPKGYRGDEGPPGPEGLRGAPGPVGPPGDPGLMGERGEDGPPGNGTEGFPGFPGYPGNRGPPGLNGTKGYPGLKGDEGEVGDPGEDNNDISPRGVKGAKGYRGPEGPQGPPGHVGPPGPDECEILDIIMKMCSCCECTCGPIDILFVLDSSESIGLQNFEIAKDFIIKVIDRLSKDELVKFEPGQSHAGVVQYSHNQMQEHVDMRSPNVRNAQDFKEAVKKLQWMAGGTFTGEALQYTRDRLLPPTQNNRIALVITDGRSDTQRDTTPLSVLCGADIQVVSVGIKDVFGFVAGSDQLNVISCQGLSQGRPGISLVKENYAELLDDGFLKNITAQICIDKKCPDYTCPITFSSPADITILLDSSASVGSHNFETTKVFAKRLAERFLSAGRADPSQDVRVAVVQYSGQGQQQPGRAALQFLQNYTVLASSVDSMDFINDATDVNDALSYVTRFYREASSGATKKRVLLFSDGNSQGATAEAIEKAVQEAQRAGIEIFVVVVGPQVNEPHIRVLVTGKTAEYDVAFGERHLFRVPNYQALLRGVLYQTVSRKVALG

Hnrnpa2b1 (from UniProt O88569 1-353) was tested. Which binding did it give?
Its binding is “binds”.

Rpl14 (from UniProt Q9CR57 1-217) was tested. Which binding did it give?
Its binding is “binds”.

Which binding does the source give for Hnrnpu (from UniProt Q8VEK3 1-800) here?
Its binding is “binds”.

For Cfl1 (from UniProt P18760 1-166), which binding is on record?
The binding was “binds”.

Col1a2 (from UniProt Q01149 86-1125) was tested. Which binding did it give?
The binding was “binds”.

Which binding does the source give for “α-Actinin 1a (from UniProt Q7TPR4 1-892)” here?
The binding was “binds”.

How did the binding turn out when “protein disulfide isomerase (PDI) (from UniProt P09103 20-509)” was run?
The binding was “binds”.

With EG433182 (from UniProt Q5FW97 1-434) as the substance, how does the binding read?
The binding was “binds”.

How did the binding turn out when Hnrnpk (from UniProt P61979 1-463) was run?
The binding was “binds”.

For Anxa2 (from UniProt P07356 1-339), which binding is on record?
Its binding is “binds”.

Flnb (from UniProt Q80X90 1-2602) was tested. Which binding did it give?
The binding was “binds”.

With Tns1 (from UniProt E9Q0S6 1-1888) as the substance, how does the binding read?
The binding was “binds”.

For H1-4 (from UniProt P43274 1-219), which binding is on record?
Its binding is “binds”.

biological target: Spinophilin (mouse (endogenous in pancreas and isolated islets)) (UniProt Q6R891); assay: affinity purification with mass spectrometry; spinophilin immunoprecipitated with goat or rabbit anti-spinophilin antibody and Protein G magnetic beads from RIPA pancreas homogenate of a single 6-wk-old WT and Lepr^db/db mouse; SDS-PAGE, in-gel tryptic digestion, Q-Exactive, spectral counts

With “protein disulfide isomerase (PDI) (from UniProt P09103 20-509)” as the substance, how does the binding read?
Its binding is “binds”.

Which binding does the source give for Neurabin-1 (from UniProt H3BJD6 1-1292) here?
The binding was “binds”.

biological target: Spinophilin (mouse (endogenous in pancreas and isolated islets)) (UniProt Q6R891); assay: affinity purification with mass spectrometry; spinophilin immunoprecipitated from pancreas of WT chow-fed, WT high-fat diet-fed and Spino^-/- high-fat diet-fed male mice; on-bead digestion, TMT10plex; hits filtered by WT/KO log2 fold-enrichment of 0.5 and two unique peptides, listed hits increased in HFF vs. lean

How did the binding turn out when Anionic trypsin-2 (from UniProt P07146) was run?
The binding was “binds”.

How did the binding turn out when “Myosin phosphatase Rho-interacting protein (from UniProt P97434 1-1024)” was run?
Its binding is “binds”.

For “Carboxypeptidase A2 (from UniProt Q504N0)”, which binding is on record?
The binding was “binds”.

“Casein kinase II subunit β (from UniProt P67871 1-215)” was tested. Which binding did it give?
Its binding is “binds”.

Which binding does the source give for Gelsolin (from UniProt P13020 26-780) here?
Its binding is “binds”.

Which binding does the source give for MCG15083 (from UniProt Q9QUK9) here?
The binding was “binds”.

“Spectrin α chain, nonerythrocytic 1 (from UniProt P16546 1-2472)” was tested. Which binding did it give?
Its binding is “binds”.

With “ADP-ribosylation factor GTPase-activating protein 3 (from UniProt Q9D8S3 1-523)” as the substance, how does the binding read?
Its binding is “binds”.

“60S ribosomal protein L22-like 1 (from UniProt Q9D7S7 1-122)” was tested. Which binding did it give?
The binding was “binds”.

How did the binding turn out when “Chymotrypsinogen B (from UniProt Q9CR35 19-263)” was run?
Its binding is “binds”.

How did the binding turn out when Talin-1 (from UniProt P26039 1-2541) was run?
The binding was “binds”.

With “α-Actinin 1a (from UniProt Q7TPR4 1-892)” as the substance, how does the binding read?
The binding was “binds”.

For “Tropomyosin β chain (from UniProt P58774 1-284)”, which binding is on record?
The binding was “binds”.

With “Capping protein (Actin filament) muscle Z-line, β, isoform CRA_a (from UniProt P47757 1-277)” as the substance, how does the binding read?
Its binding is “binds”.

Colipase (from UniProt Q9CQC2) was tested. Which binding did it give?
Its binding is “binds”.

With “Unconventional myosin-lc (from UniProt Q9WTI7 1-1063)” as the substance, how does the binding read?
Its binding is “binds”.

For “Tropomyosin α-1 chain (from UniProt P58771 1-284)”, which binding is on record?
The binding was “binds”.

For “Tropomyosin α-3 chain (from UniProt P21107 1-285)”, which binding is on record?
Its binding is “binds”.

With “Unconventional myosin-XVIIIa (from UniProt Q9JMH9 1-2050)” as the substance, how does the binding read?
The binding was “binds”.

With “F-actin-capping protein subunit α-2 (from UniProt P47754 1-286)” as the substance, how does the binding read?
The binding was “binds”.

Which binding does the source give for “KH domain-containing, RNA-binding, signal transduction-associated protein 1 (from UniProt Q60749 1-443)” here?
The binding was “binds”.

How did the binding turn out when “Deleted in malignant brain tumors 1 protein (from UniProt Q60997 20-2085)” was run?
Its binding is “binds”.

With “Spectrin β chain, nonerythrocytic 1 (from UniProt Q62261 1-2363)” as the substance, how does the binding read?
Its binding is “binds”.

With “Collagen α-1 (VI) chain (from UniProt Q04857 20-1025)” as the substance, how does the binding read?
Its binding is “binds”.

With Myosin-14 (from UniProt Q6URW6 1-2000) as the substance, how does the binding read?
Its binding is “binds”.

Which binding does the source give for “60S acidic ribosomal protein P2 (from UniProt P99027 1-115)” here?
Its binding is “binds”.

For α-Actinin-4 (from UniProt P57780 1-912), which binding is on record?
The binding was “binds”.
